Results: patent publication US12144874B2, “Synthesis and composition of photodynamic therapeutic agents for the targeted treatment of cancer” (On Target Laboratories, LLC, priority 2015, dated 2024)
“Also recorded” adds a separate entry of the source. For some of these results: Not every detail of the peptide structures is certain; ends, links or a residue may be inferred. For some of these results: For at least one compound, name, drawing or mass did not settle the structure.

Key:
[1] = Activation wavelength of non-targeted PDT agents; type: physicochemical; details: Table 1
[2] = system: subcutaneous KB tumor; assay: In vivo PDT efficacy on growth of subcutaneous KB tumor xenograft in nude mice
Protocol: The growth of the tumor was monitored (images were taken) and tumor volume was measured using caliper.
In the following examples, the in vivo efficacy of the compounds is determined using KB tumor cell xenograft in nude mice. In these studies, KB cells were implanted subcutaneously and growth of the tumors was monitored. […] Moreover, once tumors grow to […], the compounds were injected via tail vein. […] In vivo efficacy of BPheid-a was evaluated by monitoring reduction of tumor volume.
KB cells that overexpressed folate receptor were implanted subcutaneously into female nude mice and allowed to grow to ˜50 mm^3 prior to initiation of treatment with 50 nmol of BPheid-a (1). […] In vivo efficacy of BPheid-a was evaluated by monitoring reduction of tumor volume.

[3] = 50 nmol dose, laser 75 mW/cm^2, 137 J/cm^2, 38 min, 3 h after injection

Structure (SMILES)	Activation Wavelength [1] [nm]	Effect on growth of subcutaneous KB tumor, in words [2, 3]	Effect on growth of subcutaneous KB tumor, in words ([2]; 50 and 25 nmol doses, laser 38 min 3 h after injection)
Oc1cccc(-c2c3nc(c(-c4cccc(O)c4)c4ccc([nH]4)c(-c4cccc(O)c4)c4nc(c(-c5cccc(O)c5)c5ccc2[nH]5)CC4)C=C3)c1 [Compound 6, Foscan, reference compound]	652	–	–
CC[C@H]1c2cc3[nH]c4c(c3C)C(=O)C(C(=O)OC)c4c3nc(cc4[nH]c(cc(n2)[C@@H]1C)c(C(C)=O)c4C)[C@@H](C)[C@@H]3CCC(=O)NCCNC(=O)OCCSSC[C@H](NC(=O)[C@H](CC(=O)NCCS(=O)(=O)O)NC(=O)CC[C@H](NC(=O)c1ccc(NCc2cnc3nc(N)[nH]c(=O)c3n2)cc1)C(=O)O)C(=O)O (stereo partly shown) [Compound 65c]	–	completely cured with no recurrence during the monitored time (3 days)	tumor regression at both doses (50 and 25 nmol)
CC[C@H]1c2cc3[nH]c4c(c3C)C(=O)C(C(=O)OC)c4c3nc(cc4[nH]c(cc(n2)[C@@H]1C)c(C(C)=O)c4C)[C@@H](C)[C@@H]3CCC(=O)NCCC[C@H](NC(=O)CC[P+](c1ccccc1)(c1ccccc1)c1ccccc1)C(=O)NCCSSC[C@H](NC(=O)[C@H](CC(=O)NCCS(=O)(=O)O)NC(=O)CC[C@H](NC(=O)c1ccc(NCc2cnc3nc(N)[nH]c(=O)c3n2)cc1)C(=O)O)C(=O)O (stereo partly shown) [Compound 99]	–	completely cure the tumor and showed tumor regression for 2 weeks; also recorded: completely cured with no recurrence during the monitored time (2 weeks)	–
